Measurements as given in the supplement of paper PMC3334620.
Whole data set: some 33,000 sequences, median “E-score (-0.5 to 0.5)” near -0.015, cut for the highest 2% near 0.3. The list shows a part of the results.

These sequences were tested against T1, Abf1 (UniProt P14164) (assay: PBM E-score (8-mer binding enrichment) (E-score (-0.5 to 0.5)); higher = stronger / more preferred TF binding). Settings: protein concentration: 200 nM; construct: GST-full length.
T1 sequence: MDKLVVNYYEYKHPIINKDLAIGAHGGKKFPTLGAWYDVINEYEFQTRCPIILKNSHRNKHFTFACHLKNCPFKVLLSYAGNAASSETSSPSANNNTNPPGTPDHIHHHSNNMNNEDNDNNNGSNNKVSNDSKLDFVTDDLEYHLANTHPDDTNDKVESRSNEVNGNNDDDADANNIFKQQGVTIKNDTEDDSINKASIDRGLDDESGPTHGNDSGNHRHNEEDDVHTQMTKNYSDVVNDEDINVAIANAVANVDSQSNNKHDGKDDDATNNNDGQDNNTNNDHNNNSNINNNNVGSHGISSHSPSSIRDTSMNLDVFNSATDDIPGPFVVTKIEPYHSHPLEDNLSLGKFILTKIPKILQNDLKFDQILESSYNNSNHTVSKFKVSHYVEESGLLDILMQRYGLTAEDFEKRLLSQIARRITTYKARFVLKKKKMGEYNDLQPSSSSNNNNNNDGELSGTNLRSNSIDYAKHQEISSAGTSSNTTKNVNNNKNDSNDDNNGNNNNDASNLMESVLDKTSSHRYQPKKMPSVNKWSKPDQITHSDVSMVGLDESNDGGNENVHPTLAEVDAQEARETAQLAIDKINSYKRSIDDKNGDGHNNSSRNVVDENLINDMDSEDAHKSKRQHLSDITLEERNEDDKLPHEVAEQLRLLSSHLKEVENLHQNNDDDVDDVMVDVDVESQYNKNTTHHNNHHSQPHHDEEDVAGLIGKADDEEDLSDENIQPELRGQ
How it was run: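 Full-length yeast transcription factors or their DNA-binding domains, GST-tagged and expressed with PURExpress, were applied at about 100-200 nM to universal all-10-mer Agilent arrays. These arrays had been made double-stranded by primer extension on fresh or once-stripped slides. Detection used fluorescent anti-GST, normalisation used masliner, and E-scores for ungapped eight-base words pooled with reverse complements came from the Universal PBM Analysis Suite.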
For GAAACCAA, the “PBM E-score” value was -0.0399.
CGATACGC was tested, and the “PBM E-score” value was 0.121.
CCTCGATC was tested, and the “PBM E-score” value was -0.122.
For TCCTAGAA, the “PBM E-score” value was -0.106.
For ATAGGGCC, the “PBM E-score” value was -0.242.
In the case of TCCGGGCA, the “PBM E-score” value is reported as -0.0646.
CCGAGTTC was tested, and the “PBM E-score” value was 0.121.
In the case of AGCCTGTC, the “PBM E-score” value is reported as -0.215.
For CAAAATGC, the “PBM E-score” value was 0.0932.
AGTGCACA was tested, and the “PBM E-score” value was -0.0288.
In the case of AATATGGC, the “PBM E-score” value is reported as 0.0026.
In the case of CCATGAGA, the “PBM E-score” value is reported as -0.00214.
With GCTATGTA the “PBM E-score” value was -0.0658.
With AGGGTTAT the “PBM E-score” value was 0.0238.
In the case of ACATTGGG, the “PBM E-score” value is reported as -0.0776.
ATCAGTGG was tested, and the “PBM E-score” value was -0.0831.
GTGGGATA was tested, and the “PBM E-score” value was -0.0357.
CTAACGCC was tested, and the “PBM E-score” value was -0.163.
For ACCAGGCA, the “PBM E-score” value was -0.115.
For ATTCTACA, the “PBM E-score” value was 0.0795.
For AGAGGGCC, the “PBM E-score” value was -0.202.
In the case of AAATTGGG, the “PBM E-score” value is reported as 0.0133.
With TACTTAGA the “PBM E-score” value was -0.024.
For CCTTACAG, the “PBM E-score” value was -0.161.
In the case of CCGCAGTC, the “PBM E-score” value is reported as -0.165.
For AGCTCTCC, the “PBM E-score” value was -0.317.
TACAACCA was tested, and the “PBM E-score” value was -0.0973.
In the case of CTTTTATA, the “PBM E-score” value is reported as -0.0671.
ACGAATCC was tested, and the “PBM E-score” value was 0.25.
For GTTGCGGA, the “PBM E-score” value was -0.144.
For CAGTAACA, the “PBM E-score” value was 0.0584.
In the case of CCAAGCCC, the “PBM E-score” value is reported as -0.19.
For TTGATCAA, the “PBM E-score” value was 0.131.
ACGGACGA was tested, and the “PBM E-score” value was 0.263.
With TAACCTGA the “PBM E-score” value was 0.0671.
With AGCATCTG the “PBM E-score” value was -0.0435.
In the case of ATGTTTTA, the “PBM E-score” value is reported as -0.0105.
AGAGAGCC was tested, and the “PBM E-score” value was -0.00227.
For CCGATACA, the “PBM E-score” value was -0.05.
CCCTCTGC was tested, and the “PBM E-score” value was -0.216.
With AATCGGTC the “PBM E-score” value was -0.0478.
CACAGTAG was tested, and the “PBM E-score” value was -0.00072.
CCATCTTA was tested, and the “PBM E-score” value was -0.093.
CGAGGGAG was tested, and the “PBM E-score” value was -0.117.
In the case of ACTAGTTG, the “PBM E-score” value is reported as -0.251.
GTACAGAC was tested, and the “PBM E-score” value was -0.0239.
For ATGCTGCG, the “PBM E-score” value was -0.13.
For CTCAAACC, the “PBM E-score” value was -0.13.
AATGGCGG was tested, and the “PBM E-score” value was -0.202.
GATAACGA was tested, and the “PBM E-score” value was 0.145.
With GACTCGCA the “PBM E-score” value was -0.087.
In the case of AGTCTGCA, the “PBM E-score” value is reported as -0.201.
AAGTCTGG was tested, and the “PBM E-score” value was -0.199.
With ATCATATG the “PBM E-score” value was 0.0678.
With CAGCAGCA the “PBM E-score” value was -0.152.
For CACAATGA, the “PBM E-score” value was -0.0928.
CAAAATTG was tested, and the “PBM E-score” value was 0.018.
For CCCTCTAG, the “PBM E-score” value was -0.0251.
With ATGTAGAG the “PBM E-score” value was -0.0334.
ATCCATCG was tested, and the “PBM E-score” value was 0.0517.
For GACTGCGC, the “PBM E-score” value was -0.0512.
In the case of AGTCGGGA, the “PBM E-score” value is reported as -0.122.
With AACCCGGC the “PBM E-score” value was 0.0104.
With CGGATGAA the “PBM E-score” value was 0.211.
CTTTAAAC was tested, and the “PBM E-score” value was 0.0651.
With GCTCTTCA the “PBM E-score” value was -0.0495.
With CATACTCA the “PBM E-score” value was -0.0369.
In the case of TAGGGGCA, the “PBM E-score” value is reported as -0.146.
In the case of ATAAAACA, the “PBM E-score” value is reported as 0.107.
With ACCTCGTA the “PBM E-score” value was 0.182.
With CGCCACAC the “PBM E-score” value was -0.0181.
In the case of CCATAGCA, the “PBM E-score” value is reported as -0.193.
In the case of AAGACCTC, the “PBM E-score” value is reported as -0.346.
For TCAGCCGA, the “PBM E-score” value was -0.0123.
For ACCCATAG, the “PBM E-score” value was -0.337.
For CTCAAGGA, the “PBM E-score” value was -0.0647.
For AAGCGCTG, the “PBM E-score” value was -0.216.
For ACCCGTTA, the “PBM E-score” value was 0.108.
With AAATAAGA the “PBM E-score” value was 0.0435.
ATATAAGA was tested, and the “PBM E-score” value was 0.254.
In the case of CCTCGCTA, the “PBM E-score” value is reported as -0.0888.
With CTGTTACA the “PBM E-score” value was 0.0724.
With GCAGGACA the “PBM E-score” value was -0.00797.
For CTGTCGAA, the “PBM E-score” value was -0.0836.
In the case of CAAGGAAC, the “PBM E-score” value is reported as -0.125.
With AGGCCAAA the “PBM E-score” value was -0.1.
